Source: publication PMC5941314
Results are given in words; binding and its absence hold for the method and conditions named. Some entries that bind do so weakly or less than the wild type.

Amino acid sequences for entries named in this document (tags omitted). Residues count along the entry.
UniProt Q8ND25, residues 139-227: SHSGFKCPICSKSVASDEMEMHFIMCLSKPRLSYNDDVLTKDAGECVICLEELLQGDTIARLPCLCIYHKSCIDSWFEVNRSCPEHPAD
UniProt P61088: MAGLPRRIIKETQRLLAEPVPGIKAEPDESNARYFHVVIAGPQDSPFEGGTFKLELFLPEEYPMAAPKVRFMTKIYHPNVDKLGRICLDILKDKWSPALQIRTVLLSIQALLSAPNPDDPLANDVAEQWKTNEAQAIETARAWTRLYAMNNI

Key:
[1] = target: ZNRF1^CTD (C-terminal domain of ZNRF1, residues 139–227) (UniProt Q8ND25); test: crystal structure; SEC-purified ZNRF1^CTD : Ube2N complex; hanging drop, 20°C, 0.2 M magnesium formate, 20% PEG 3350; Zn SAD phasing; 1.47 Å; both purified
[2] = target: ZNRF1^CTD (C-terminal domain of ZNRF1, residues 139–227) (UniProt Q8ND25); test: SEC; analytical, Superdex 75 10/300 GL; 20 mM Na-HEPES pH 7.7, 150 mM NaCl, 0.5 mM DTT; calibrated with molecular mass markers; both purified

Ube2N (from UniProt P61088 1-152) (enzyme)
binding [1]: binds | binding [2]: binds
